For at least one compound, name, drawing or mass did not settle the structure.
Target: rat alpha-glucosidase (Rat aG)
Assay: inhibitory activity to rat alpha-glucosidase (Rat aG)
Format: biochemical

Compound: C[C@H]1O[C@H](O[C@H]2[C@H](O)[C@@H](O)[C@@H](O[C@H]3[C@H](O)[C@@H](O)C(O)O[C@@H]3CO)O[C@@H]2CO)[C@H](O)[C@@H](O)[C@@H]1N[C@H]1C=C(CO)[C@@H](O)[C@H](O)[C@H]1O (stereo partly shown) [A, Acarbose]
- Rat aG IC50: 107 µg/mL

— patent US9850519B1, “Method for producing alpha-glucosidase inhibitors utilizing Paenibacillus sp” (Tamkang University, priority 2016, dated 2017)
